From article PMC5719454

Legend:
[1] = molecular target: Gpc5ΔHS mutant (X. laevis); experiment: fluorescence imaging of a secreted mV-tagged protein accumulating on overexpressing cells in the embryo; Xenopus embryo; glypican or its ΔHS mutant overexpressed by mRNA injection; accumulation of the secreted mV-tagged protein on the cell membrane compared with non-expressing control cells
[2] = molecular target: Gpc4ΔHS mutant (Xenopus); experiment: as above

binding [1]: no binding | binding [2]: no binding
B1: Wnt8 fused with monomeric Venus (mV-Wnt8) (ligand, UniProt P28026 23-358)
chain: AWSVNNFLMTGPKAYLTYSASVAVGAQNGIEECKYQFAWERWNCPESTLQLATHNGLRSATRETSFVHAISSAGVMYTLTRNCSMGDFDNCGCDDSRNGRIGGRGWVWGGCSDNAEFGERISKLFVDGLETGQDARALMNLHNNEAGRLAVKETMKRTCKCHGISGSCSIQTCWLQLAEFRDIGNHLKIKHDQALKLEMDKRKMRSGNSADNRGAIADAFSSVAGSELIFLEDSPDYCLKNISLGLQGTEGRECLQSGKNLSQWERRSCKRLCTDCGLRVEEKKTEIISSCNCKFHWCCTVKCEQCKQVVIKHFCARRERDSNMLNTKRKNRGHRR

No constants are given. Whether binding was seen depends on the method and setting. Tags and fused reporters may be left off the sequences shown.
